# PubChem BioAssay AID493014 (National Center for Advancing Translational Sciences (NCATS), 2011)
# This is one part of the list. Shown are side measurements of this screen, not its main read-out; they come without a call. Compounds called inactive in the main read-out are mostly missing here. The note in brackets gives the kind of curve behind each potency; many fits are weak.
# Assay: qHTS Assay to Find Inhibitors of Chronic Active B-Cell Receptor Signaling
# Settings: ABC-DLBCL IkBa-CBG/CBR reporter, luminescence ratio (green luciferase fused to IkBa over red control in TMD8 lymphoma cells), 4 h
# Summary of the method: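 Cell line TMD8 (human ABC DLBCL), stably expressing tet-inducible CBG68-IkBa fusion and CBR; IMDM/0.5% FBS; cpd up to 46 uM; dox induction, 4 h, 37C/5% CO2; dual luminescence; green/red ratio; MG132 control.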
# [1] = measured here: CBR red luminescence, cell number
# [2] = measured here: IkBa-CBG green luminescence
Compound,AC50 [1],AC50 [2]
Cc1ccc(NC2Sc3ccccc3NC2=O)cc1 (centres undefined),"5.62 µM [falling, partial curve, poor fit]",–
Cc1cc(C)c(C(=O)N2CCCC(Nc3ccc(F)cc3)C2)o1 (centres undefined),"2.82 µM [rising, single point]",–
COc1ccc(Nc2nnc(SCC(=O)Nc3ccc4[nH]c(=O)[nH]c4c3)s2)cc1,"0.355 µM [rising, full curve, poor fit]",–
CCCCCC(=O)NC(=S)Nc1ccc(Cl)cn1,"3.66 µM [rising, full curve, poor fit]",–
O=C(CSc1ccc2nnc(-c3ccc(F)cc3)n2n1)NCC1CCCO1 (centres undefined),"28.2 µM [rising, single point]",–
Cc1nc(N)nc(-c2ccccc2O)n1,"0.461 µM [falling, full curve, poor fit]",–
COc1ccc(/C=C2/C(=O)OCc3cc(OC)c(OC)cc32)c(OC)c1,"1.03 µM [rising, partial curve, poor fit]",–
O=C(NCc1ccco1)C(=O)c1cn(CC(=O)N2CCCC2)c2ccccc12,"7.08 µM [falling, full curve, poor fit]",–
CCOc1ccc(/C=N/N2C(C)CCCC2C)cc1OC (centres undefined),"0.562 µM [rising, full curve, poor fit]",–
COC(=O)c1c(C)oc2ccc(N(C(=O)c3ccncc3)S(=O)(=O)c3ccc(C)cc3)cc12,"0.058 µM [rising, full curve, poor fit]",–
CC(=O)Nc1ccc(/C=N/NC(=O)c2cccc(S(=O)(=O)N3CCOCC3)c2)cc1,"0.411 µM [rising, full curve, poor fit]",–
CCOc1ccccc1NS(=O)(=O)c1ccc(-c2cnc(C3CC3)o2)cc1,"2.82 µM [rising, partial curve]","2.24 µM [falling, full curve]"
O=C(NNC(=S)Nc1ccc(F)cc1F)c1ccco1,"12.6 µM [falling, partial curve, poor fit]",–
CCCn1c(=N)n(CC(=O)c2ccc(Cl)cc2)c2ccccc21,"1.26 µM [rising, full curve, poor fit]",–
COc1ccccc1-c1nc(S(=O)(=O)c2ccccc2)c(N2CCCCC2)o1,"17.8 µM [falling, partial curve, poor fit]",–
Cc1ccc(NC(=O)COC(=O)CN2C(=O)COc3ccccc32)cc1,"0.517 µM [rising, full curve, poor fit]",–
Cc1cccc2sc(NC(=O)C3CCCN(S(=O)(=O)c4cccc5nonc45)C3)nc12 (centres undefined),"3.66 µM [falling, full curve, poor fit]",–
Cc1ccc(CSc2nc3ccsc3c(=O)n2Cc2ccccn2)cc1,"16.4 µM [falling, single point]",–
CC(C)CNC(=O)CC(=O)NN=C1CCCC1,"0.231 µM [rising, full curve, poor fit]",–
Cc1nc(C(=O)NCCO)cc2c1[nH]c1ccccc12,"10 µM [falling, partial curve]",–

Compound,AC50 [1],AC50 [2]
Clc1ccc(N=C2SCC3CCCCN23)cc1 (centres undefined),"7.94 µM [rising, partial curve]",–
COc1ccc(/C=N/Nc2cc(C)nc(NS(=O)(=O)c3ccc(C)cc3)n2)cc1,–,"0.0411 µM [falling, full curve, poor fit]"
CCCc1nnc(NC(=O)c2cc3ccccc3o2)s1,"0.562 µM [falling, full curve, poor fit]",–
Cc1cc(C)[n+]2n1C(=O)C(c1ccccc1)=C2[O-],"35.5 µM [falling, partial curve, poor fit]","17.8 µM [rising, partial curve, poor fit]"
Cc1cccc(-n2ncc3c(NC4CCCC4)ncnc32)c1,"3.16 µM [falling, partial curve, poor fit]",–
CC(C)N(C(=O)Nc1ccc2nsnc2c1)C(C)C,"6.31 µM [falling, full curve, poor fit]",–
Cc1ccccc1CS(=O)(=O)c1ncc(Cl)c(C(=O)Nc2ccc(F)cc2)n1,"7.08 µM [falling, full curve]","5.62 µM [rising, full curve]"
N#CC1=C(N)N(c2ccccc2)C(c2cccc([N+](=O)[O-])c2)C1(C#N)C#N (centres undefined),"3.55 µM [rising, full curve, poor fit]",–
O=C(NCCN1CCOCC1)c1csc2c1CCCC2,"29.1 µM [falling, single point]","16.4 µM [rising, partial curve, poor fit]"
CC(Sc1ccccc1)C(=O)N1CCN(S(=O)(=O)c2ccccc2)CC1 (centres undefined),"22.4 µM [falling, single point]",–
O=C(Cn1cc([N+](=O)[O-])cn1)NCCc1nc2ccccc2[nH]1,"3.55 µM [rising, full curve]",–
C=CCc1cccc(/C=N/NC(=O)c2ccccc2OC)c1O,"4.47 µM [falling, full curve]",–
CCc1ccc(Nc2nc(N)nc(CSc3nc4ccccc4s3)n2)cc1,–,"4.61 µM [falling, partial curve, poor fit]"
Cc1ccc(CC(=O)N2CC(C)OC(C)C2)cc1 (centres undefined),"2.82 µM [falling, partial curve, poor fit]",–
COc1ccc(C(=O)/C=C/c2ccsc2)cc1CSCC(=O)O,"14.1 µM [falling, partial curve]",–
Nc1ccc(CCc2nc3ccccc3o2)cc1,"29.1 µM [falling, single point]",–
C=Cc1c(C)c2cc3[nH]c(cc4nc(cc5nc(cc1[nH]2)C(C)=C5CCC(=O)O)C(CCC(=O)O)=C4C)c(C)c3C=C,"16.4 µM [rising, partial curve, poor fit]",–
COCCC(=O)N1CCC(Oc2ccc(C(=O)NCCc3cn[nH]c3)cc2)CC1,"0.126 µM [rising, full curve]",–
CC(C)(C)C1CCc2c(sc3nc(SCC(=O)O)nc(N)c23)C1 (centres undefined),"0.316 µM [falling, full curve]",–
Cc1[nH]c(=O)[nH]c(=O)c1S(=O)(=O)N1CCCC(C(=O)NCCc2ccc(Cl)cc2)C1 (centres undefined),"0.00461 µM [falling, full curve, poor fit]",–

# 2 compounds picked at random from those above:
Compound,AC50 [1],AC50 [2]
Cc1cccc(-n2ncc3c(NC4CCCC4)ncnc32)c1,"3.16 µM [falling, partial curve, poor fit]",–
Clc1ccc(N=C2SCC3CCCCN23)cc1 (centres undefined),"7.94 µM [rising, partial curve]",–
